These results are taken from PMC10284605.

Sequences of proteins named here, by UniProt entry; tags and fusion partners are left off. A change or cut given only in a name is not applied to a line headed by its entry.
UniProt O55242: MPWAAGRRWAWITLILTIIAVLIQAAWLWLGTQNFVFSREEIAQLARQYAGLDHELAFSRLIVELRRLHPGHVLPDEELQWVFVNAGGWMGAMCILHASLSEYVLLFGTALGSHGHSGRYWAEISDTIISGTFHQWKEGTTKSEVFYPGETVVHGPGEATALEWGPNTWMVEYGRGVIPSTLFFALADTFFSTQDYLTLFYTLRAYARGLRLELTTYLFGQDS

This test concerns the target S1R-Apex (mouse) (UniProt O55242). Put plainly: co-IP; Lysate of HeLa cells stably expressing S1R-Apex in 0.2% CHAPS, 50 mM Tris-Cl pH 7.5, 150 mM NaCl, 1 mM EDTA; anti-V5 precipitates S1R-Apex, anti-HA as control; protein-A agarose, 4 C; Western blot. Background: In western blotting, separated proteins are transferred to a membrane and probed.

These are yes or no findings as the source states them, for the method shown. In cells and extracts the contact can be indirect. Some binding calls cover weakened binding; strength is not graded here.

B1: Calnexin (protein, UniProt P27824 21-592)
chain: HDGHDDDVIDIEDDLDDVIEEVEDSKPDTTAPPSSPKVTYKAPVPTGEVYFADSFDRGTLSGWILSKAKKDDTDDEIAKYDGKWEVEEMKESKLPGDKGLVLMSRAKHHAISAKLNKPFLFDTKPLIVQYEVNFQNGIECGGAYVKLLSKTPELNLDQFHDKTPYTIMFGPDKCGEDYKLHFIFRHKNPKTGIYEEKHAKRPDADLKTYFTDKKTHLYTLILNPDNSFEILVDQSVVNSGNLLNDMTPPVNPSREIEDPEDRKPEDWDERPKIPDPEAVKPDDWDEDAPAKIPDEEATKPEGWLDDEPEYVPDPDAEKPEDWDEDMDGEWEAPQIANPRCESAPGCGVWQRPVIDNPNYKGKWKPPMIDNPSYQGIWKPRKIPNPDFFEDLEPFRMTPFSAIGLELWSMTSDIFFDNFIICADRRIVDDWANDGWGLKKAADGAAEPGVVGQMIEAAEERPWLWVVYILTVALPVFLVILFCCSGKKQTSGMEYKKTDAPQPDVKEEEEEKEEEKDKGDEEEEGEEKLEEKQKSDAEEDGGTVSQEEEDRKPKAEEDEILNRSPRNRKPRRE
B1: the binding entry is “binds weakly”.
